The values below come from publication PMC12024905.

The chains behind the UniProt entries cited, without tags or fusion partners. Where a name states a change or a piece, a line headed by the entry shows the natural chain unless it says otherwise.
UniProt P01584: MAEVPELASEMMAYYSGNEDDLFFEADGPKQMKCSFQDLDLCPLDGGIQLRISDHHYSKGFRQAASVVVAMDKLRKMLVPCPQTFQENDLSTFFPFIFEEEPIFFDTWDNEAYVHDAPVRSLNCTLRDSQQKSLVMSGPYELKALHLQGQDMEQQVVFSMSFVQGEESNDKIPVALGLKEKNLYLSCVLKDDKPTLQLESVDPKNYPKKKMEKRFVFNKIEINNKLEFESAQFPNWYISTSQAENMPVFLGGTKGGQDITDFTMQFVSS

The assay concerns the target His-tagged IL-1β (IL-1β-His) (UniProt P01584). As to the kind of experiment: co-IP; anti-His antibody on protein A/G agarose beads; IL1R1 [0.5 μg] and IL-1β-His [0.2 μg] alone or with unlabeled IL-1β [0.2 ng], LN [0.5 μg] or SC [0.5 μg], 30 min; washed in PBS; blot with anti-IL1R1; both purified.

These are yes or no findings as the source states them, for the method shown. In cells and extracts the contact can be indirect. Binding calls can cover weak binding; strength is not graded here.

On to DHLSDNYTLDHDRAIH [Link N (LN)], for which the binding entry was “binds”.
